Reference: the supplement of paper PMC10849652
Some of the results follow.

Sequences of proteins named here, by UniProt entry; tags and fusion partners are left off. A change or cut given only in a name is not applied to a line headed by its entry.
UniProt Q9Y3D8, whole entry, looked up: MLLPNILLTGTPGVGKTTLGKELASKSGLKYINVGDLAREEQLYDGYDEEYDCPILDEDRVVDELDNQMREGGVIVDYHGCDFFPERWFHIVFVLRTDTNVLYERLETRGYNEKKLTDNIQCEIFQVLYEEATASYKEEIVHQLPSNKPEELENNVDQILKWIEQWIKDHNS
UniProt Q6DHV7: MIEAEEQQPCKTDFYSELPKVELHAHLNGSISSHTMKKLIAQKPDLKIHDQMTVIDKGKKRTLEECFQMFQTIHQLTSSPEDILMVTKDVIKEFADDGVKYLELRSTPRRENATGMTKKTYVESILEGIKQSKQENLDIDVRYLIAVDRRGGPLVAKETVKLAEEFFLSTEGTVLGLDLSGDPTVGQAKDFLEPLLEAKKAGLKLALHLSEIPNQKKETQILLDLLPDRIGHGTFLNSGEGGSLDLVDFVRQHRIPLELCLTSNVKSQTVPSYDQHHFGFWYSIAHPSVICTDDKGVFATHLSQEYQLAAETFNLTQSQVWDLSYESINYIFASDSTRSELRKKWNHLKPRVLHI
UniProt Q96HN2, whole entry, looked up: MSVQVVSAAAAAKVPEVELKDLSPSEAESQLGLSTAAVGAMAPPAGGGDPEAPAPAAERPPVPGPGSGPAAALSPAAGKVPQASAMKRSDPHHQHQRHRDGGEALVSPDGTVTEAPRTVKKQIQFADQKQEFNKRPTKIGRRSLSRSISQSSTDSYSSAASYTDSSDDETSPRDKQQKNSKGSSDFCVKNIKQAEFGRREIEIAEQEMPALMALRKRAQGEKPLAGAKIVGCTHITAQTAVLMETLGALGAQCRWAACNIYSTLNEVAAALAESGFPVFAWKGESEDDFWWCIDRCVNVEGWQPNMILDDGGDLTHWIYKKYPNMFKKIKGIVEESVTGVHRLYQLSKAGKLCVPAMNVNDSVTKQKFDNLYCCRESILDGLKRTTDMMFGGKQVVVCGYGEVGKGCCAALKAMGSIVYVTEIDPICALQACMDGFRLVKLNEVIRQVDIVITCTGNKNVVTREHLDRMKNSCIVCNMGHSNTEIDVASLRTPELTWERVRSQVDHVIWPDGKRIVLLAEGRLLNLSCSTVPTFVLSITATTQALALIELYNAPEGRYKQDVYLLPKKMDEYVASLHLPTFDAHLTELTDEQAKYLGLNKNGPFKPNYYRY
UniProt Q96EY9: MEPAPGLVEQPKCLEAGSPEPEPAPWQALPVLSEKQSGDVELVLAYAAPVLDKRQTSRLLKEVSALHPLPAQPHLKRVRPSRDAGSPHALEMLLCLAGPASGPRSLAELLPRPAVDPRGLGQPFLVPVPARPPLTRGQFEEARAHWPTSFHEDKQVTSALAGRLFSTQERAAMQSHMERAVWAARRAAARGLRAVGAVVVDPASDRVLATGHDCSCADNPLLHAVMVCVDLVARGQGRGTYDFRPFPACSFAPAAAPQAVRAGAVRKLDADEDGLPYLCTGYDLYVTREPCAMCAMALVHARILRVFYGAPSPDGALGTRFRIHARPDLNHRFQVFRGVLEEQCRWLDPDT
UniProt P30566: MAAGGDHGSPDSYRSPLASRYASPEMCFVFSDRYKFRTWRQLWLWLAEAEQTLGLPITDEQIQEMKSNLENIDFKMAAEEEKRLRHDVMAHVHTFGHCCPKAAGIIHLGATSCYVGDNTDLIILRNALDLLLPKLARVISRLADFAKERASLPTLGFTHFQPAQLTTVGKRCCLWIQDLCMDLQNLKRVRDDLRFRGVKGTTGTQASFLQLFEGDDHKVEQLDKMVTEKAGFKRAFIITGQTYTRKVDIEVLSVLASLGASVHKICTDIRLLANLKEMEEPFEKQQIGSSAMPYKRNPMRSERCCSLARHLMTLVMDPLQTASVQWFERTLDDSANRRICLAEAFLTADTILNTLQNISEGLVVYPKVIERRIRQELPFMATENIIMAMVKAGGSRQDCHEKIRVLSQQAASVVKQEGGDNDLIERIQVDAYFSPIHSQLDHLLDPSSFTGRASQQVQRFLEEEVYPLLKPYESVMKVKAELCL
UniProt Q6ULP2: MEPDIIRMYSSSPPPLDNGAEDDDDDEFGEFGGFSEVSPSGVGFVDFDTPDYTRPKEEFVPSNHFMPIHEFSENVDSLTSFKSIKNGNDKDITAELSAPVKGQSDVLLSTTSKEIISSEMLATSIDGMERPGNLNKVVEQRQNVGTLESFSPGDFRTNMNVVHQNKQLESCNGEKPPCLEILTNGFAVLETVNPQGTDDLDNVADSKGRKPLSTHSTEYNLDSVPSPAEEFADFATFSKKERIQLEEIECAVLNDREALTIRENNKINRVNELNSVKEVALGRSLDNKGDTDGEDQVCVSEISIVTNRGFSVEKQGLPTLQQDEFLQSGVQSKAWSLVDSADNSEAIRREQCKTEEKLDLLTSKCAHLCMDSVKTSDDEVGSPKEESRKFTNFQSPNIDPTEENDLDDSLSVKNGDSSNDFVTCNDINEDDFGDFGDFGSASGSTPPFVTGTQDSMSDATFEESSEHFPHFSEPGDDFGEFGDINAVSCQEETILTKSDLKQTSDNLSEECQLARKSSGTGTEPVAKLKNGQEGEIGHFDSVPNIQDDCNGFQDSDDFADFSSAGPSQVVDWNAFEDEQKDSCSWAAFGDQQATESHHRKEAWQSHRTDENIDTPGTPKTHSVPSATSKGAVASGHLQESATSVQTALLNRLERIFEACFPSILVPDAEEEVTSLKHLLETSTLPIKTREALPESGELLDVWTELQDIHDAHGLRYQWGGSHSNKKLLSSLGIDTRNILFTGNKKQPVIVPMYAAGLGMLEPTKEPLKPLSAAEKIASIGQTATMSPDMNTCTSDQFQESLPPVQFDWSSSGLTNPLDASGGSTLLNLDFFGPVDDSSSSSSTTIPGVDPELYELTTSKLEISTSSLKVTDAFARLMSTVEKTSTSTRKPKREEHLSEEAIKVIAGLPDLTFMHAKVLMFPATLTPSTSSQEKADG
UniProt O00154: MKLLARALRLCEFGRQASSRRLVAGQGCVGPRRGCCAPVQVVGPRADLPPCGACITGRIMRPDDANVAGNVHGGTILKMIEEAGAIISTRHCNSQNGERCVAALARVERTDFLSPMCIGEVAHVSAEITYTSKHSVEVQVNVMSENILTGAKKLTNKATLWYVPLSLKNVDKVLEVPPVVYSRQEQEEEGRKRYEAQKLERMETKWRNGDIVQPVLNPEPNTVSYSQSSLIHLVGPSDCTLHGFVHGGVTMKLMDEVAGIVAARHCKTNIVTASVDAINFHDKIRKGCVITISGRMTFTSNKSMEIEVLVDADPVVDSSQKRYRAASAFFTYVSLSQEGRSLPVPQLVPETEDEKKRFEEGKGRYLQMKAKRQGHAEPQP
UniProt P51825: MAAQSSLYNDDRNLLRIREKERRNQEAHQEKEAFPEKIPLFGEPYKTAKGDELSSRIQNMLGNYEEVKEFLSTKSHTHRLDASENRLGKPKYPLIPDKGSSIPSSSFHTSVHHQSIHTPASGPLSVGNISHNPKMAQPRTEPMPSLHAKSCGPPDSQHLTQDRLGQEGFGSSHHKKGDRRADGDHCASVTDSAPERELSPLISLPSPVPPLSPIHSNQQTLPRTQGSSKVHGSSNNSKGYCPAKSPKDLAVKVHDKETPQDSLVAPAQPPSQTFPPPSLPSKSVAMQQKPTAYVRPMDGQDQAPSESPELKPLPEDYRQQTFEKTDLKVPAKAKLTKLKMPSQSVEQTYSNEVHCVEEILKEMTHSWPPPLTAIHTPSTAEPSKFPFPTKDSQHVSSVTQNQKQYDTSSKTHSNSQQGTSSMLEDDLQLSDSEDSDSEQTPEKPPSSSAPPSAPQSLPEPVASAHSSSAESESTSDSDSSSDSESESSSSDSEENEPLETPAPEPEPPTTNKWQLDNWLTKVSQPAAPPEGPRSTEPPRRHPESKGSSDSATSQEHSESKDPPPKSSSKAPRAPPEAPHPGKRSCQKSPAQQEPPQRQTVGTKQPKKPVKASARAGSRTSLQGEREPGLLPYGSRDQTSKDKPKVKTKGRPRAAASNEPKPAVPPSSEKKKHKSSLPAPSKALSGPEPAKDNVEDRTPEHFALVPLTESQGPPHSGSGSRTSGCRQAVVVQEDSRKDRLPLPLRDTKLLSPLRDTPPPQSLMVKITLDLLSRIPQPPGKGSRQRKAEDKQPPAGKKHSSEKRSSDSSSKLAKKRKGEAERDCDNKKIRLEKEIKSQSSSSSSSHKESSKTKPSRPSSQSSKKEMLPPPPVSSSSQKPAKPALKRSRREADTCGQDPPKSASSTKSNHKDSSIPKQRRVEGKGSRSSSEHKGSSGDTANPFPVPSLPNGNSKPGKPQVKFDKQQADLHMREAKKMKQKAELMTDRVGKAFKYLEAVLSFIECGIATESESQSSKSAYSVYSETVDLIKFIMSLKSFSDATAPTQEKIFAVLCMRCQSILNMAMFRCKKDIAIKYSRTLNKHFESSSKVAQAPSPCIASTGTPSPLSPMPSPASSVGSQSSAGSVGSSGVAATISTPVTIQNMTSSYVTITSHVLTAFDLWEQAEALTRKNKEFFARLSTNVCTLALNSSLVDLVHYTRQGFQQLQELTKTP
UniProt P33121: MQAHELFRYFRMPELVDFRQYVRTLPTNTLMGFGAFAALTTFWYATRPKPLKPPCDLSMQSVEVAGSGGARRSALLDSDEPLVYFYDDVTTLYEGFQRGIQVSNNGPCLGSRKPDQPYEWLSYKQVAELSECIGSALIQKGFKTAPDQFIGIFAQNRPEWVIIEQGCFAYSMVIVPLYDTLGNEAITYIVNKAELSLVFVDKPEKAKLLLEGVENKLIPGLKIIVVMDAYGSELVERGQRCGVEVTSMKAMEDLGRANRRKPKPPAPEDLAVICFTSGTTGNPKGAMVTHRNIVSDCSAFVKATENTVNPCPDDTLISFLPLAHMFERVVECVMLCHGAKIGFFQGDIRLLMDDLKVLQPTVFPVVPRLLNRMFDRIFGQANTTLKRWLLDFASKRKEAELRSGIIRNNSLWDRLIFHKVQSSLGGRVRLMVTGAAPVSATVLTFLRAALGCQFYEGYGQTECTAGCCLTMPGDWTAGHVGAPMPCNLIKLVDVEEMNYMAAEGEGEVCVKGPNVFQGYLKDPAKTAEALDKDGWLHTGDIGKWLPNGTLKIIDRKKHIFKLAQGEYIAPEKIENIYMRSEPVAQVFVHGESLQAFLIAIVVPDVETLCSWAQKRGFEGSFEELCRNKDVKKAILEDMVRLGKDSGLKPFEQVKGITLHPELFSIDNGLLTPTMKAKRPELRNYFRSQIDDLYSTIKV
UniProt Q9BRR6: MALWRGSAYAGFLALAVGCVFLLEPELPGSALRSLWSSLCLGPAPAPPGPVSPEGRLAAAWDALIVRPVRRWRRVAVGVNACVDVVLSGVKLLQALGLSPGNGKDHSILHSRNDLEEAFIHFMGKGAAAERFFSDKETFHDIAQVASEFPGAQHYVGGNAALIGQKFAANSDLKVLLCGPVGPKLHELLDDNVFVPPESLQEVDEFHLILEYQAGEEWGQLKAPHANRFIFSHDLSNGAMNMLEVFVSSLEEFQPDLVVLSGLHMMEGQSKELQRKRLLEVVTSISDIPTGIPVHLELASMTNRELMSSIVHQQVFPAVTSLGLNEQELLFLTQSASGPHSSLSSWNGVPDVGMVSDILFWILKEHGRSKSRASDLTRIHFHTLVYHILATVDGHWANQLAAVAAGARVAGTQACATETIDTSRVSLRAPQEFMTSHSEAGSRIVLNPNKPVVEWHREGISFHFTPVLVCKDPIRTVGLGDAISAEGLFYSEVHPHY
UniProt Q9H568: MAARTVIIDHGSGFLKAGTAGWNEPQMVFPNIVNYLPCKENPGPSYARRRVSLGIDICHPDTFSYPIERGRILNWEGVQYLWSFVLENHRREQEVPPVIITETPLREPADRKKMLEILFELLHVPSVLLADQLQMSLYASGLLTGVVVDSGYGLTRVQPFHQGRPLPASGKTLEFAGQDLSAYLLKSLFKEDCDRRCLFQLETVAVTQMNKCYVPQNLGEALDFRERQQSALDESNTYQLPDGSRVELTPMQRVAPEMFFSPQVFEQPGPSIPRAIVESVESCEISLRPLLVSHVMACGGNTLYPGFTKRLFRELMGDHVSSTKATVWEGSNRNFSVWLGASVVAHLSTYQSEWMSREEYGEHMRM
UniProt Q9NZ32, whole entry, looked up: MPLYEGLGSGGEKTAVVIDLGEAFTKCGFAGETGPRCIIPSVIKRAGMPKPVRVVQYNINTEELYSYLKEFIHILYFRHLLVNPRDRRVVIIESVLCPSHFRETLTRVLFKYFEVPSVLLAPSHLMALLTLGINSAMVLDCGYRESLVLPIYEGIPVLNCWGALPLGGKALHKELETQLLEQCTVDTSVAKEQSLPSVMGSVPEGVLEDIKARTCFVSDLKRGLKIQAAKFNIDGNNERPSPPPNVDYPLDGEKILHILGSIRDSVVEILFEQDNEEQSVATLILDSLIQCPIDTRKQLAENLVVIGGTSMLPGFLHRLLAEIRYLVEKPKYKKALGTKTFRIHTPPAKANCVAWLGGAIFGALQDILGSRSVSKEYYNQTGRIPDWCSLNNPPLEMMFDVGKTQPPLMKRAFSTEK

How the values were obtained:
Test in all cases: log2 fold change, soluble protein after heating vs DMSO (PISA); higher = thermal stabilisation; K562 lysate, 10 uM; active = over 0.2 and 3.5 SD of the protein, either way, in both replicates (recomputed)
lapatinib = compound: CS(=O)(=O)CCNCc1ccc(-c2ccc3ncnc(Nc4ccc(OCc5cccc(F)c5)c(Cl)c4)c3c2)o1 [lapatinib]
Procedure, shortened: (§1)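 Pellets of K562 cells were dounce-homogenised in PBS pH 7.4 with 1 mM MgCl2, and the crude extract was held at 1 mg/mL protein for a 30 min treatment with 10 μM compound. Aliquots were heated for 3 min over 48°C-58°C and pooled before NP-40 was added to 0.5% at 4°C. The supernatant from 21,000xg for 90 min was quantified by TMTpro 16plex LC-MS/MS with channel sums equalised. Values are reported from duplicates as log-two fold change in thermal stability relative to solvent controls.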

pictilisib = compound: CS(=O)(=O)N1CCN(Cc2cc3nc(-c4cccc5[nH]ncc45)nc(N4CCOCC4)c3s2)CC1 [pictilisib]
Procedure, shortened: as §1

crizotinib = compound: C[C@@H](Oc1cc(-c2cnn(C3CCNCC3)c2)cnc1N)c1c(Cl)ccc(F)c1Cl [crizotinib]
Procedure, shortened: as §1

[1] = compound: C[C@H](C1=CC=C(C=C1)C(=O)NC2=C3C=CNC3=NC=C2)N
Procedure, shortened: as §1

duvelisib = compound: C[C@H](Nc1ncnc2nc[nH]c12)c1cc2cccc(Cl)c2c(=O)n1-c1ccccc1 [duvelisib]
Procedure, shortened: as §1

gandotinib = compound: Cc1cc(Nc2cc(CN3CCOCC3)c3nc(C)c(Cc4ccc(Cl)cc4F)n3n2)n[nH]1 [gandotinib]
Procedure, shortened: as §1

tozasertib = compound: Cc1cc(Nc2cc(N3CCN(C)CC3)nc(Sc3ccc(NC(=O)C4CC4)cc3)n2)n[nH]1 [tozasertib]
Procedure, shortened: as §1

doramapimod = compound: Cc1ccc(-n2nc(C(C)(C)C)cc2NC(=O)Nc2ccc(OCCN3CCOCC3)c3ccccc23)cc1 [doramapimod]
Procedure, shortened: as §1

bafetinib = compound: Cc1ccc(NC(=O)c2ccc(CN3CC[C@H](N(C)C)C3)c(C(F)(F)F)c2)cc1Nc1nccc(-c2cncnc2)n1 [bafetinib]
Procedure, shortened: as §1

[2] = compound: Cc1cccc(CC(=O)N2CCc3c2ccc(-c2cn(C)c4ncnc(N)c24)c3F)n1
Procedure, shortened: as §1

Target	log2 fold change (lapatinib)	log2 fold change (pictilisib)	log2 fold change (crizotinib)	log2 fold change [1]	log2 fold change (duvelisib)	log2 fold change (gandotinib)	log2 fold change (tozasertib)	log2 fold change (doramapimod)	log2 fold change (bafetinib)	log2 fold change [2]
ACTR3 (UniProt P61158)	inactive: 0.067	inactive: 0.007	inactive: 0.032	inactive: 0.004	inactive: -0.012	inactive: -0.021	inactive: -0.005	inactive: 0.025	inactive: 0.078	inactive: -0.004
ADK (UniProt P55263)	inactive: 0.154	inactive: 0.169	inactive: 0.235	inactive: -0.007	inactive: 0.059	active: 0.532	inactive: -0.005	inactive: 0.014	inactive: 0.292	inactive: -0.064
AHNAK (UniProt Q09666)	inactive: 0.02	inactive: 0.001	inactive: 0.031	inactive: -0.014	inactive: -0.014	inactive: 0.054	inactive: -0.003	inactive: -0.007	inactive: -0.009	inactive: -0.028
AGRN (UniProt O00468)	inactive: -0.048	inactive: 0.022	inactive: -0.051	inactive: -0.092	inactive: -0.073	inactive: 0.067	inactive: -0.007	inactive: 0.019	inactive: 0.066	inactive: 0.036
AK6 (UniProt Q9Y3D8)	inactive: -0.015	inactive: -0.063	inactive: -0.021	inactive: 0.047	inactive: -0.004	inactive: -0.162	inactive: 0.053	inactive: 0.038	inactive: 0.025	inactive: -0.054
ACOX1 isoform 2 (UniProt Q15067)	inactive: -0.003	inactive: -0.003	inactive: -0.004	inactive: -0.112	inactive: -0.012	inactive: 0.167	inactive: 0.043	inactive: 0.024	inactive: -0.01	inactive: 0.054
ADAL (UniProt Q6DHV7)	inactive: 0.011	inactive: -0.029	inactive: 0.047	inactive: 0.053	inactive: 0.023	inactive: -0.039	inactive: -0.006	inactive: -0.02	inactive: 0.024	inactive: -0.039
AHCYL2 (UniProt Q96HN2)	inactive: -0.018	inactive: 0.008	inactive: -0.039	inactive: -0.047	inactive: -0.055	inactive: 0.034	inactive: 0.009	inactive: -0.014	inactive: -0.02	inactive: 0.046
ADAT3 (UniProt Q96EY9)	inactive: -0.058	inactive: -0.018	inactive: 0.002	inactive: 0.044	inactive: 0.03	inactive: 0.004	inactive: 0.087	inactive: -0.027	inactive: -0.043	inactive: -0.039
ACSM3 (UniProt Q53FZ2)	inactive: 0.008	inactive: -0.018	inactive: -0.014	inactive: 0.011	inactive: 0.025	inactive: -0.051	inactive: 0.002	inactive: 0	inactive: -0.034	inactive: 0.047
ADSL (UniProt P30566)	inactive: 0.006	inactive: 0	inactive: 0.054	inactive: 0.073	inactive: 0.007	inactive: -0.081	inactive: -0.026	inactive: -0.011	inactive: 0.031	inactive: -0.1
AFTPH isoform 9 (UniProt Q6ULP2)	inactive: -0.029	inactive: 0	inactive: -0.006	inactive: 0.061	inactive: -0.017	inactive: 0	inactive: -0.017	inactive: -0.01	inactive: -0.029	inactive: 0.022
AK3 (UniProt Q9UIJ7)	inactive: -0.014	inactive: -0.023	inactive: 0.043	inactive: 0.033	inactive: -0.014	inactive: -0.039	inactive: 0.035	inactive: -0.039	inactive: 0.004	inactive: -0.026
AK2 (UniProt P54819)	inactive: 0.058	inactive: -0.005	inactive: -0.007	inactive: 0.076	inactive: -0.031	inactive: 0	inactive: 0	inactive: 0.061	inactive: 0.005	inactive: -0.046
ACTN4 (UniProt O43707)	inactive: -0.018	inactive: -0.002	inactive: 0.018	inactive: 0.009	inactive: 0.005	inactive: 0.02	inactive: -0.018	inactive: -0.017	inactive: 0.019	inactive: -0.028
AKAP8L (UniProt Q9ULX6)	inactive: 0.017	inactive: -0.018	inactive: 0.053	inactive: -0.05	inactive: 0.038	inactive: 0.033	inactive: 0	inactive: -0.153	inactive: 0.016	inactive: 0.011
ADO (UniProt Q96SZ5)	inactive: -0.022	inactive: -0.013	inactive: 0.012	inactive: -0.029	inactive: -0.027	inactive: 0.027	inactive: -0.001	inactive: -0.038	inactive: 0.033	inactive: -0.006
AKAP1 (UniProt Q92667)	inactive: 0.002	inactive: -0.023	inactive: -0.027	inactive: -0.012	inactive: 0.148	inactive: -0.02	inactive: 0.085	inactive: 0.02	inactive: -0.025	inactive: 0.041
AGO4 (UniProt Q9HCK5)	inactive: 0.013	inactive: -0.076	inactive: -0.01	inactive: -0.113	inactive: 0.014	inactive: 0.048	inactive: -0.001	inactive: -0.014	inactive: -0.004	inactive: 0.002
ACOT7 isoform 7 (UniProt O00154)	inactive: -0.019	inactive: -0.028	inactive: 0.017	inactive: -0.022	inactive: 0.005	inactive: 0.01	inactive: -0.031	inactive: -0.003	inactive: 0.006	inactive: 0.007
ACP2 (UniProt P11117)	inactive: -0.016	inactive: -0.043	inactive: 0.025	inactive: -0.076	inactive: -0.041	inactive: 0.018	inactive: 0.006	inactive: 0.019	inactive: -0.009	inactive: 0.078
AGL (UniProt P35573)	inactive: -0.004	inactive: 0	inactive: -0.019	inactive: 0.115	inactive: -0.013	inactive: -0.094	inactive: 0.014	inactive: 0.029	inactive: -0.037	inactive: -0.059
AFF1 isoform 2 (UniProt P51825)	inactive: -0.055	inactive: -0.063	inactive: 0.005	active: -0.396	inactive: 0.067	inactive: 0.341	inactive: 0.066	inactive: 0.064	inactive: -0.04	active: 0.696
ACSL1 (UniProt P33121)	inactive: -0.03	inactive: -0.094	inactive: -0.115	inactive: 0.021	inactive: 0.043	inactive: -0.049	inactive: 0.033	inactive: 0.053	inactive: -0.038	inactive: 0.061
AKR1B1 (UniProt P15121)	inactive: -0.009	inactive: 0.006	inactive: 0.065	inactive: -0.102	inactive: -0.006	inactive: 0.037	inactive: -0.014	inactive: -0.022	inactive: 0.011	inactive: 0.006
ADPGK (UniProt Q9BRR6)	inactive: 0.09	inactive: -0.062	inactive: 0.099	inactive: 0.034	inactive: -0.02	inactive: -0.017	inactive: -0.017	inactive: -0.009	inactive: -0.007	inactive: 0.041
ACTL8 (UniProt Q9H568)	inactive: -0.008	inactive: 0.134	inactive: 0.066	inactive: -0.061	inactive: 0.082	inactive: -0.04	inactive: -0.005	inactive: -0.034	inactive: 0.022	inactive: 0.07
ADSS2 (UniProt P30520)	inactive: -0.018	inactive: -0.033	inactive: -0.012	inactive: -0.076	inactive: 0.045	inactive: 0.038	inactive: -0.006	inactive: 0.018	inactive: -0.029	inactive: 0.014
ACTR10 (UniProt Q9NZ32)	inactive: 0.035	inactive: -0.018	inactive: -0.057	inactive: -0.001	inactive: 0.004	inactive: 0.02	inactive: 0.012	inactive: 0.062	inactive: 0.034	inactive: 0.039
ADSS1 (UniProt Q8N142)	inactive: -0.069	inactive: -0.051	inactive: 0.013	inactive: -0.055	inactive: -0.022	inactive: 0.09	inactive: 0.004	inactive: 0.006	inactive: -0.024	inactive: 0.031

Pulled one by one from above, two records:
Target	log2 fold change (lapatinib)	log2 fold change (pictilisib)	log2 fold change (crizotinib)	log2 fold change [1]	log2 fold change (duvelisib)	log2 fold change (gandotinib)	log2 fold change (tozasertib)	log2 fold change (doramapimod)	log2 fold change (bafetinib)	log2 fold change [2]
AK2 (UniProt P54819)	inactive: 0.058	inactive: -0.005	inactive: -0.007	inactive: 0.076	inactive: -0.031	inactive: 0	inactive: 0	inactive: 0.061	inactive: 0.005	inactive: -0.046
AFTPH isoform 9 (UniProt Q6ULP2)	inactive: -0.029	inactive: 0	inactive: -0.006	inactive: 0.061	inactive: -0.017	inactive: 0	inactive: -0.017	inactive: -0.01	inactive: -0.029	inactive: 0.022
